Measured values from PubChem BioAssay AID1487 (National Center for Advancing Translational Sciences (NCATS), 2009).
The list shows a part of the results. These are further read-outs of the screen, such as a control signal, another cell line or another target. No call is given for them. Most of these compounds were active or inconclusive in the main read-out, so they are no random draw. Potencies come from curve fits of mixed quality, noted in brackets.

Experiment: qHTS Assay for Modulators of Lamin A Splicing
Conditions: HeLa LMNA splicing GFP/RFP minigene ratio, 48 h
Method in brief: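 S3 HeLa cells stably expressing lamin A-EGFP splicing minigene plus DsRed2, 600 cells/well, 48 h compound exposure at 37C. Laser-scanning cytometry; analysed as GFP (500-530 nm)/RFP (575-640 nm) total intensity ratio; 0.5% DMSO vehicle.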

[1] = measured here: RFP viability control channel
[2] = measured here: GFP splicing reporter channel

CC(C)C(=O)Nc1ccc2nc(SCC(=O)N3CCCC3)sc2c1
AC50 [1]: 6.31 µM [falling, partial curve, poor fit]

CC1CCC(NC(=O)c2ccc3nc[nH]c3c2)CC1 (stereo not given)
AC50 [2]: 2.82 µM [falling, full curve, poor fit]
AC50 [1]: 2.51 µM [falling, full curve]

Cc1ccc(SCCNC(=O)c2ccc(C)c(S(=O)(=O)Nc3cccc(C)c3)c2)cc1
AC50 [2]: 35.5 µM [falling, single point]
AC50 [1]: 25.1 µM [falling, single point]

COc1ccc(Cl)cc1C(=O)Nc1ccccc1N1CCN(C(=O)C(C)C)CC1
AC50 [1]: 28.2 µM [rising, single point]

CC(C)c1cc(CN2CCN(Cc3ccc(F)c(F)c3)C(CCO)C2)[nH]n1 (stereo not given)
AC50 [1]: 22.4 µM [falling, partial curve, poor fit]

CCOc1ccc(CCNC(=O)C2CCN(C(=O)N3CC(CC)Oc4ccccc43)CC2)cc1 (stereo not given)
AC50 [2]: 0.0316 µM [falling, full curve, poor fit]

CCOCCCN(Cc1ccco1)S(=O)(=O)c1cc2c(cc1Cl)NC(=O)CO2
AC50 [2]: 0.562 µM [rising, full curve, poor fit]

O=C(Cn1c(-c2ccccc2)c[n+]2ccsc12)c1ccc([N+](=O)[O-])cc1
AC50 [1]: 11.2 µM [rising, partial curve]

COc1cccc(CNC(=O)CCS(=O)(=O)c2ccc3c(c2)oc(=O)n3C)c1
AC50 [2]: 0.00316 µM [falling, full curve, poor fit]
AC50 [1]: 0.01 µM [falling, full curve, poor fit]

O=C(c1cc2ccccc2oc1=O)N(c1ccc(Cl)cc1)C1C=CS(=O)(=O)C1 (stereo not given)
AC50 [1]: 17.8 µM [rising, partial curve]

CN(C)S(=O)(=O)c1ccc(N2CCCC2)c(C(=O)Nc2nc3c(ccc4ccccc43)s2)c1
AC50 [2]: 14.1 µM [rising, single point]
AC50 [1]: 17.8 µM [rising, single point]

CCOC(=O)N1CCN(Cc2nc3c(c(=O)n(C)c(=O)n3C)n2Cc2cccc3ccccc23)CC1
AC50 [1]: 22.4 µM [rising, single point]

CC(Oc1ccc(F)cc1)C(=O)Nc1sc2c(c1C(=O)NCc1cccnc1)CCCC2 (stereo not given)
AC50 [2]: 35.5 µM [rising, single point]
AC50 [1]: 31.6 µM [rising, single point]

CC1CN(C(=O)c2cc3cc([N+](=O)[O-])ccc3oc2=O)CC(C)O1 (stereo not given)
AC50 [2]: 7.08 µM [falling, full curve, poor fit]

COC(=O)C1C(C(C)C)N(c2ccccc2)OC1(C)O (stereo not given)
AC50 [2]: 6.31 µM [falling, single point]
AC50 [1]: 5.62 µM [falling, single point]

O=C(Nc1cccc(S(=O)(=O)C(F)F)c1)c1ccc(S(=O)(=O)N2CCCC2)cc1
AC50 [2]: 31.6 µM [falling, single point]

C(=N\NC(=Nc1ccccc1)c1ccccn1)/c1ccccn1
AC50 [2]: 2.51 µM [falling, partial curve]
AC50 [1]: 35.5 µM [rising, single point]

O=C(c1ccccc1)N(c1ccccc1)C1C=CS(=O)(=O)C1 (stereo not given)
AC50 [1]: 0.0282 µM [rising, full curve, poor fit]

CC12CC(NC(=O)N1c1cccc(C(=O)NCc3ccc4c(c3)OCO4)c1)c1cc(Cl)ccc1O2 (stereo not given)
AC50 [1]: 25.1 µM [rising, single point]

Cc1ccccc1/C=N/Nc1ccnc2cc(Cl)ccc12
AC50 [2]: 15.8 µM [rising, single point]
AC50 [1]: 31.6 µM [rising, single point]

Cc1csc(NC(=O)CCCSc2nc3ccccc3s2)n1
AC50 [1]: 15.8 µM [rising, single point]

Cc1ccccc1-c1nc(SCC(=O)NCc2ccco2)c2c(=O)n(C)c(=O)n(C)c2n1
AC50 [2]: 0.316 µM [rising, partial curve, poor fit]
AC50 [1]: 0.398 µM [rising, partial curve, poor fit]

CCCOc1ccccc1C1NC(=O)NC(C)=C1C(=O)OCCOCC (stereo not given)
AC50 [1]: 1.58 µM [rising, partial curve]

Cc1[nH]c2ccccc2c1C(=O)CSC(=S)N(C)C1CCCCC1
AC50 [2]: 12.6 µM [rising, partial curve]
AC50 [1]: 15.8 µM [rising, partial curve]

O=C(Nc1nc2ccc(S(=O)(=O)N3CCCC3)cc2s1)c1ccccn1
AC50 [1]: 35.5 µM [falling, single point]
